This series can be described thus: general procedure: solution-phase peptide synthesis; PyBop, DIPEA. Particulars: for step yield: coupling step; for cyclisation yield: cyclisation step.

“And” between values parts separate entries of the source, which are not always exact repeats. Equal entries are not always repeated.

This note sets out measurements from paper PMC11284792 (Journal of Medicinal Chemistry, 2024).

Turning to “Benzyl(6R,9S,12R,15S,18R,21S,24R,27S)-2,2,5,6,11,12,17,18,23,24-decamethyl-4,7,10,13,16,19,22,25-octaoxo-9,15,21,27-tetrapentyl-3-oxa-5,8,11,14,17,20,23,26-octaazaoctacosan-28-oate”, the step yield came out at 63%.

As for “Benzyl (6R,9S,12R,15S,18R,21S,24R,27S)-2,2,5,6,8,11,12,14,17,18,20,23,24,26-tetradecamethyl-4,7,10,13,16,19,22,25-octaoxo-9,15,21,27-tetrapentyl-3-oxa-5,8,11,14,17,20,23,26-octaazaoctacosan-28-oate”, the step yield is reported as 55%.

For the substance “(3S,6R,9S,12R,15S,18R,21S,24R)-1,6,7,12,13,18,19,24-Octamethyl-3,9,15,21-tetrapentyl-1,4,7,10,13,16,19,22-octaazacyclotetracosan-2,5,8,11,14,17,20,23-octaone”, where the note is “3 steps from O59”, the cyclisation yield is recorded as 11.0%.

“Benzyl (6R,9S,12R,15S)-2,2,5,6,8,11,12-heptamethyl-4,7,10,13-tetraoxo-9,15-dipentyl-3-oxa-5,8,11,14-tetraazahexadecan-16-oate”: the step yield turned out to be 68%.

For “Benzyl (S)-2-((6R,9S,12R)-N,2,2,5,6,11,12-heptamethyl-4,7,10-trioxo-9-pentyl-3,8-dioxa-5,11-diazatridecan-13- amido)heptanoate”, the step yield is listed as 72%.

“(S)-1-(benzyloxy)-1-oxoheptan-2-yl (6R,9S,12R)-2,2,5,6,11,12-hexamethyl-4,7,10-trioxo-9-pentyl-3-oxa-5,8,11- triazatridecan-13-oate” registered a step yield of 81%.

“Benzyl (6R,9S,12R,15S,18R,21S)-2,2,5,6,8,11,12,14,17,18,20-undecamethyl-4,7,10,13,16,19-hexaoxo-9,15,21-tripentyl-3-oxa-5,8,11,14,17,20-hexaazadocosan-22-oate”: the step yield is on record as 59%.

The substance “Benzyl (S)-2-(((6R,9S,12R,15S,18R,21S,24R)-2,2,6,11,12,17,18,23,24-nonamethyl-4,7,10,13,16,19,22-heptaoxo-9,15,21-tripentyl-3,8,14,20-tetraoxa-5,11,17,23-tetraazapentacosan-25-oyl)oxy)heptanoate” had a step yield of 80%.

“Benzyl (S)-2-(((6R,9S,12R,15S,18R,21S,24R)-2,2,5,6,11,12,18,24-octamethyl-4,7,10,13,16,19,22-heptaoxo-9,15,21-tripentyl-3,8,14,20-tetraoxa-5,11,17,23-tetraazapentacosan-25-oyl)oxy)heptanoate”: the step yield amounted to 69%.

As for “Benzyl (6R,9S,12R,15S)-2,2,6,8,12,14-hexamethyl-4,7,10,13-tetraoxo-9,15-dipentyl-3-oxa-5,8,11,14-tetraazahexadecan-16-oate”, the step yield is 70% and 64–70% yield.

“Benzyl (R)-2-(((6R,9R,12R)-2,2,5,6,11,12-hexamethyl-4,7,10-trioxo-9-pentyl-3,8-dioxa-5,11-diazatridecan-13-oyl)oxy) heptanoate” had a step yield of 94%.

For “Benzyl (6R,9S,12R,15S)-2,2,5,6,8,12,14-heptamethyl-4,7,10,13-tetraoxo-9,15-dipentyl-3-oxa-5,8,11,14-tetraazahexadecan-16-oate”, the step yield was 64–70% yield.

For “Benzyl (6R,9S,12R,15S)-2,2,5,6,8,11,12,14-octamethyl-4,7,10,13-tetraoxo-9,15-dipentyl-3-oxa-5,8,11,14-tetraazahexadecan-16-oate”, the step yield is 51% yield overall.

In turn, “(S)-1-(((R)-1-(((S)-1-(benzyloxy)-1-oxoheptan-2-yl)oxy)-1-oxopropan-2-yl)(methyl)amino)-1-oxoheptan-2-yl (6R,9S,12R,15S,18R)-2,2,5,6,11,12,17,18-octamethyl-4,7,10,13,16-pentaoxo-9,15-dipentyl-3-oxa-5,8,11,14,17-pentaazanonadecan-19-oate” showed a step yield of 70%.

“Benzyl (6R,9S,12R,15S)-2,2,6,8,11,12,14-heptamethyl-4,7,10,13-tetraoxo-9,15-dipentyl-3-oxa-5,8,11,14-tetraazahexadecan-16-oate” gave a step yield of 72% yield.

On to “Benzyl (6R,9S,12R,15S,18R,21S)-2,2,5,6,11,12,17,18-octamethyl-4,7,10,13,16,19-hexaoxo-9,15,21-tripentyl-3-oxa-5,8,11,14,17,20-hexaazadocosan-22-oate”, for which the step yield amounted to 70%.

For “(3R,6S,9R,12S,15R,18S,21R,24S)-1,3,4,7,9,10,13,15,16,19,21-undecamethyl-6,12,18,24-tetrapentyl-1,4,7,10,13,16,19,22-octaazacyclotetracosan-2,5,8,11,14,17,20,23-octaone”, the cyclisation yield turned out to be 8% yield (3 steps) and 7.5% (3 steps from linear depsipeptide).

Take “Benzyl(6R,9S,12R,15S)-2,2,5,6,11,12-hexamethyl-4,7,10,13-tetraoxo-9,15-dipentyl-3-oxa-5,8,11,14-tetraazahexadecan-16-oate”: the step yield is listed as 94%.
